Experimental data: PubChem BioAssay AID686938 (Drosophila RNAi Screening Center, 2013)

- Test: 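Looking for CRAC channel components and the factors controlling them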 (primary screen)
- Cells: Drosophila S2R+ cells
- Reagents: long dsRNA against Drosophila genes, about 0.25 µg dsRNA per well, roughly 10,000 cells
- Duration: 5 days of knock-down before the calcium assay
- Challenge: thapsigargin (SERCA pump blocker) to empty calcium stores; entry signal taken 4 min after adding it
- Detection: 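Duplicate raw fluo-4 intensities per well from a plate reader, at rest and four minutes after thapsigargin emptied calcium stores; entry-to-rest ratio filled for only some wells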
- Scale: calcium entry signal: higher = stronger calcium signal after store depletion; entry to resting ratio: higher = more calcium entry relative to resting level; resting calcium signal: higher = higher resting calcium signal
- Hit rule: 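Called when the plate z-score of the entry-to-rest ratio, mean of duplicates, falls below −3; wells with low overall dye signal (Fmax z below −2) or more than five off-targets excluded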
- Meaning of the calls: active = strongly reduced calcium entry; inactive = no strong reduction
The deposit covers about 23,000 reagents; this is a random part of those that have a named target and a result. Over the whole deposit, 75 (0.33%) were called active. 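Raw plate signals without normalisation; calls rest on plate z-scores that were not deposited; ratio present for only 364 wells.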 The numbers tell different reagents against one gene apart. No sequences are given here. Not stated in the record: the dose of the treatment.

| Target gene | reagent no. | calcium entry signal, replicate 1 (fluorescence units) | calcium entry signal, replicate 2 (fluorescence units) | entry to resting ratio | resting calcium signal, replicate 1 (fluorescence units) | resting calcium signal, replicate 2 (fluorescence units) | activity call |
| --- | --- | --- | --- | --- | --- | --- | --- |
| spdo | 1 | 4.76e7 | 3.14e7 | – | 2.09e7 | 1.28e7 | inactive |
| e(y)3 | 1 | 5.02e7 | 4.79e7 | – | 2.26e7 | 1.87e7 | inactive |
| ppk28 | 1 | 3.30e7 | 3.07e7 | – | 1.71e7 | 1.49e7 | inactive |
| Ubc7 | 1 | 2.60e7 | 2.48e7 | – | 1.41e7 | 1.24e7 | inactive |
| CG7058 | 1 | 4.45e7 | 3.48e7 | – | 2.07e7 | 1.54e7 | inactive |
| krz | 1 | 3.00e7 | 4.84e7 | 2.2 | 1.40e7 | 1.81e7 | inactive |
| NimB4 | 1 | 4.17e7 | – | – | 1.97e7 | – | inactive |
| CG4497 | 1 | 3.85e7 | – | – | 2.22e7 | – | inactive |
| Ir75c | 1 | 3.89e7 | 5.29e7 | – | 1.95e7 | 2.26e7 | inactive |
| DENR | 1 | 2.92e7 | 3.12e7 | – | 1.38e7 | 1.47e7 | inactive |
| CG8736 | 1 | 4.38e7 | 3.60e7 | – | 2.03e7 | 1.55e7 | inactive |
| Cbl | 1 | 2.96e7 | 4.59e7 | – | 1.45e7 | 2.06e7 | inactive |
| Cbl | 2 | 2.94e7 | 4.72e7 | – | 1.57e7 | 2.08e7 | inactive |
| CG14151 | 1 | 1.08e7 | 2.14e7 | – | 6.46e6 | 9.58e6 | inactive |
| Gmd | 1 | 3.61e7 | – | – | 1.95e7 | – | inactive |
| CG7402 | 1 | 5.50e7 | 7.96e7 | – | 2.54e7 | 2.81e7 | inactive |
| Eh | 1 | 3.15e7 | 4.75e7 | – | 1.55e7 | 7.13e7 | inactive |
| sw | 1 | 3.49e7 | 3.79e7 | – | 1.81e7 | 1.98e7 | inactive |
| Ir94a | 1 | 4.34e7 | 2.65e7 | – | 2.33e7 | 1.25e7 | inactive |
| CG31220 | 1 | 2.08e7 | 4.88e7 | – | 1.07e7 | 2.13e7 | inactive |
| Sec13 | 1 | 4.49e7 | 3.60e7 | – | 2.24e7 | 1.65e7 | inactive |
| Dop2R | 1 | 4.39e7 | 4.76e7 | – | 2.19e7 | 2.14e7 | inactive |
| Dop2R | 2 | 4.48e7 | 4.85e7 | – | 2.26e7 | 2.10e7 | inactive |
| Ace | 1 | 3.74e7 | 3.50e7 | – | 1.81e7 | 1.53e7 | inactive |
| Ace | 2 | 3.79e7 | 4.50e7 | – | 1.66e7 | 1.93e7 | inactive |
| mdy | 1 | 2.73e7 | 3.86e7 | – | 1.64e7 | 1.71e7 | inactive |
| mdy | 2 | 5.55e7 | – | – | 2.70e7 | – | inactive |
| Hsp60D | 1 | 3.91e7 | 2.82e7 | – | 1.72e7 | 1.27e7 | inactive |
| CG9300 | 1 | 2.24e7 | 2.09e7 | – | 1.80e7 | 1.13e7 | inactive |
| CG43367 | 1 | 3.63e7 | 4.17e7 | – | 1.88e7 | 1.91e7 | inactive |
| CG43367 | 2 | 3.69e7 | 3.95e7 | – | 1.98e7 | 2.03e7 | inactive |
| CG43367 | 3 | 2.95e7 | 3.76e7 | – | 1.74e7 | 1.81e7 | inactive |
| CG11771 | 1 | 4.56e7 | 4.61e7 | – | 2.03e7 | 2.02e7 | inactive |
| CG14689 | 1 | 3.66e7 | 3.06e7 | – | 1.87e7 | 1.63e7 | inactive |
| CG13008 | 1 | 3.50e7 | 3.38e7 | – | 1.85e7 | 1.58e7 | inactive |
| CG13008 | 2 | 3.46e7 | 3.40e7 | – | 1.76e7 | 1.51e7 | inactive |
| CG4194 | 1 | 3.96e7 | 4.38e7 | – | 1.86e7 | 2.04e7 | inactive |
| salto | 1 | 4.86e7 | 3.62e7 | – | 1.90e7 | 1.74e7 | inactive |
| eIF3f2 | 1 | 3.87e7 | 4.33e7 | – | 1.82e7 | 1.97e7 | inactive |
| Noc2 | 1 | 2.49e7 | – | – | 1.30e7 | – | inactive |
| CG8136 | 1 | 4.80e7 | 3.59e7 | – | 2.24e7 | 1.76e7 | inactive |
| ear | 1 | 3.84e7 | 4.39e7 | – | 1.58e7 | 1.86e7 | inactive |
| Mco1 | 1 | 3.11e7 | 4.42e7 | – | 1.57e7 | 1.98e7 | inactive |
| CG14367 | 1 | 2.95e7 | 4.67e7 | – | 1.47e7 | 6.02e7 | inactive |
| Uro | 1 | 2.06e7 | 2.74e7 | – | 1.01e7 | 1.25e7 | inactive |
| CG7781 | 1 | 4.02e7 | 6.75e7 | – | 1.91e7 | 2.95e7 | inactive |
| CG2975 | 1 | 3.19e7 | 3.69e7 | – | 1.77e7 | 1.64e7 | inactive |
| Ir67c | 1 | 4.04e7 | 3.65e7 | – | 2.40e7 | 1.73e7 | inactive |
| TwdlF | 1 | 3.84e7 | 4.45e7 | – | 1.75e7 | 3.21e7 | inactive |
| CG4409 | 1 | 4.85e7 | 6.64e7 | – | 2.21e7 | 3.18e7 | inactive |
| CG9312 | 1 | 2.04e7 | 2.83e7 | – | 9.78e6 | 1.39e7 | inactive |
| CG7742 | 1 | 4.31e7 | – | – | 2.03e7 | – | inactive |
| knon | 1 | 5.04e7 | 5.82e7 | – | 2.20e7 | 2.68e7 | inactive |
| IntS11 | 1 | 3.33e7 | 4.05e7 | – | 1.59e7 | 1.96e7 | inactive |
| Mid1 | 1 | 4.56e7 | 5.97e7 | – | 2.37e7 | 2.48e7 | inactive |
| Mid1 | 2 | 4.70e7 | 3.83e7 | – | 2.29e7 | 2.00e7 | inactive |
| Mid1 | 3 | 4.60e7 | 3.83e7 | – | 2.28e7 | 1.99e7 | inactive |
| Mid1 | 4 | 4.46e7 | 3.16e7 | – | 2.40e7 | 1.69e7 | inactive |
| Mid1 | 5 | 3.41e7 | 3.72e7 | – | 1.70e7 | 1.77e7 | inactive |

Reformatted: 10 of the entries above.
DENR → calcium entry signal, replicate 1 (fluorescence units) = 2.92e7; calcium entry signal, replicate 2 (fluorescence units) = 3.12e7; resting calcium signal, replicate 1 (fluorescence units) = 1.38e7; resting calcium signal, replicate 2 (fluorescence units) = 1.47e7; activity call = inactive
CG8736 → calcium entry signal, replicate 1 (fluorescence units) = 4.38e7; calcium entry signal, replicate 2 (fluorescence units) = 3.60e7; resting calcium signal, replicate 1 (fluorescence units) = 2.03e7; resting calcium signal, replicate 2 (fluorescence units) = 1.55e7; activity call = inactive
Cbl #1 → calcium entry signal, replicate 1 (fluorescence units) = 2.96e7; calcium entry signal, replicate 2 (fluorescence units) = 4.59e7; resting calcium signal, replicate 1 (fluorescence units) = 1.45e7; resting calcium signal, replicate 2 (fluorescence units) = 2.06e7; activity call = inactive
Cbl #2 → calcium entry signal, replicate 1 (fluorescence units) = 2.94e7; calcium entry signal, replicate 2 (fluorescence units) = 4.72e7; resting calcium signal, replicate 1 (fluorescence units) = 1.57e7; resting calcium signal, replicate 2 (fluorescence units) = 2.08e7; activity call = inactive
CG14151 → calcium entry signal, replicate 1 (fluorescence units) = 1.08e7; calcium entry signal, replicate 2 (fluorescence units) = 2.14e7; resting calcium signal, replicate 1 (fluorescence units) = 6.46e6; resting calcium signal, replicate 2 (fluorescence units) = 9.58e6; activity call = inactive
Gmd → calcium entry signal, replicate 1 (fluorescence units) = 3.61e7; resting calcium signal, replicate 1 (fluorescence units) = 1.95e7; activity call = inactive
CG7402 → calcium entry signal, replicate 1 (fluorescence units) = 5.50e7; calcium entry signal, replicate 2 (fluorescence units) = 7.96e7; resting calcium signal, replicate 1 (fluorescence units) = 2.54e7; resting calcium signal, replicate 2 (fluorescence units) = 2.81e7; activity call = inactive
Eh → calcium entry signal, replicate 1 (fluorescence units) = 3.15e7; calcium entry signal, replicate 2 (fluorescence units) = 4.75e7; resting calcium signal, replicate 1 (fluorescence units) = 1.55e7; resting calcium signal, replicate 2 (fluorescence units) = 7.13e7; activity call = inactive
sw → calcium entry signal, replicate 1 (fluorescence units) = 3.49e7; calcium entry signal, replicate 2 (fluorescence units) = 3.79e7; resting calcium signal, replicate 1 (fluorescence units) = 1.81e7; resting calcium signal, replicate 2 (fluorescence units) = 1.98e7; activity call = inactive
Ir94a → calcium entry signal, replicate 1 (fluorescence units) = 4.34e7; calcium entry signal, replicate 2 (fluorescence units) = 2.65e7; resting calcium signal, replicate 1 (fluorescence units) = 2.33e7; resting calcium signal, replicate 2 (fluorescence units) = 1.25e7; activity call = inactive
